Laboratory results from publication PMC6794377.
These are yes or no findings as the source states them, for the method shown. In cells and extracts the contact can be indirect. These calls come from enrichment with a bait or labelling near it, and not all partners need be listed.

T1: native mouse ThrRS-L (mThrRS-L) (mouse (endogenous in muscle tissue and NIH/3T3)) (UniProt Q8BLY2)
T1 sequence: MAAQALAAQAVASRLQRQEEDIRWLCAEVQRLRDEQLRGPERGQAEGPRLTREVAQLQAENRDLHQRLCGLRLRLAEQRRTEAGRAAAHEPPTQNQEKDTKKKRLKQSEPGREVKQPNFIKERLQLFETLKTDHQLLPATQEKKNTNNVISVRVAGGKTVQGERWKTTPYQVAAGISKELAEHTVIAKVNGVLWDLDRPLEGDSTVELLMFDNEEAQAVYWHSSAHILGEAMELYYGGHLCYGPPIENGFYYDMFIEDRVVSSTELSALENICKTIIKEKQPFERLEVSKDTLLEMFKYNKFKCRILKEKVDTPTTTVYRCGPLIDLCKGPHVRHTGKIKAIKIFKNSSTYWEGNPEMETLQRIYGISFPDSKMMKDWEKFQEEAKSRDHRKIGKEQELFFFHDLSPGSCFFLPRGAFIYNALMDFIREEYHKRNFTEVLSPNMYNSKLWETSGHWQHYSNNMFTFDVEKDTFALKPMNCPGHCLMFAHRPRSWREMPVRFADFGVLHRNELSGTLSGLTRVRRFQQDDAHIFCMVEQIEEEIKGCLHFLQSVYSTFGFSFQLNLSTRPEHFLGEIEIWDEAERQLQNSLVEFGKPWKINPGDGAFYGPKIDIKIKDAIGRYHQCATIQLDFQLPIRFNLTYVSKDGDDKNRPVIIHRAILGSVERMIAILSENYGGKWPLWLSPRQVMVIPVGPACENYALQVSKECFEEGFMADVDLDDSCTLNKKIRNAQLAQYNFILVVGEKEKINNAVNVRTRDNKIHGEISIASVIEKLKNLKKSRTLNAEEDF


Molecular target: T1, native mouse ThrRS-L (mThrRS-L) (mouse (endogenous in muscle tissue and NIH/3T3))
Experiment: affinity purification with mass spectrometry; extract of mouse muscle tissue, IP with anti-mThrRS-L antibodies; SDS-PAGE, silver staining, bands cut out for MS

binding	Binder
binds	Dlat, endogenous in mouse muscle tissue (protein, UniProt Q8BMF4 86-642) SLPPHQKVPLPSLSPTMQAGTIARWEKKEGEKISEGDLIAEVETDKATVGFESLEECYMAKILVPEGTRDVPVGSIICITVEKPQDIEAFKNYTLDLAAAAAPQAAPAAAPAPAAAPAAPSASAPGSSYPTHMQIVLPALSPTMTMGTVQRWEKKVGEKLSEGDLLAEIETDKATIGFEVQEEGYLAKILVPEGTRDVPLGAPLCIIVEKQEDIAAFADYRPTEVTSLKPQAAPPAPPPVAAVPPTPQPVAPTPSAAPAGPKGRVFVSPLAKKLAAEKGIDLTQVKGTGPEGRIIKKDIDSFVPSKAAPAAAAAMAPPGPRVAPAPAGVFTDIPISNIRRVIAQRLMQSKQTIPHYYLSVDVNMGEVLLVRKELNKMLEGKGKISVNDFIIKASALACLKVPEANSSWMDTVIRQNHVVDVSVAVSTPAGLITPIVFNAHIKGLETIASDVVSLASKAREGKLQPHEFQGGTFTISNLGMFGIKNFSAIINPPQACILAIGASEDKLIPADNEKGFDVASVMSVTLSCDHRVVDGAVGAQWLAEFKKYLEKPITMLL
binds	mouse ArgRS, endogenous in muscle tissue (enzyme, UniProt Q9D0I9 1-660) MDGLVAQCSARLLQQEREIKALTAEIDRLKNCGCLEASPSLEQLREENLKLKYRLNILRRSLQEERRKPTKNMININSRLQEVFGCAIRAAYPDLENPPLIVTPSQQPKFGDYQCNSAMGISQMLKAKEQKVSPREIAENITKHLPNNKYIDKVEIAGPGFINVHLRKDFVSEQLTSLLVNGVQLPVLGDKEKVIVDFSSPNIAKEMHVGHLRSTIIGESMSRLFEFAGYDVLRLNHVGDWGTQFGMLIAHLQDKFPDYLTVSPPIGDLQAFYKESKKRFDADEEFKKRAYQCVVLLQSKNPDIMKAWNLICDVSREEFKKIYDALDITLIERGESFYQDRMKDIVKEFEDKGFVQVDDGRKIVFVPGCSVPLTIVKSDGGYTYDTSDLAAIKQRLFEEKANKIIYVVDNGQAIHFQTIFAAAQMIGWYDPKVTLVTHVGFGVVLGEDKKKFKTRSGETVRLMDLLEEGLKRSMDKLKEKERDKVLTEEELKAAQTSVAYGCIKYADLSHNRLNDYIFSFDKMLDDRGNTAAYLLYAFTRIRSIARLANIDEAMLQRAARETKIILDHEKEWKLGRCILRFPEILQKILDDLFLHTLCDYIYELATTFTEFYDSCYCVEKDRQTGKVLKVNMWRMLLCEAVAAVMAKGFDILGIKPVQRM
binds	native mouse ThrRS (mThrRS), endogenous in muscle tissue (enzyme, UniProt Q9D0R2 1-722) MSQEKASSPSGKMDGEKPVDASEEKRKEGGKKKSKDGGGDGGRAELNPWPEYINTRLDMYNKLKAEHDSILAEKAAKDSKPIKVTLPDGKQVDAESWKTTPYQIACGISQGLADNTVVAKVNKVVWDLDRPLETDCTLELLKFEDEEAQAVYWHSSAHIMGEAMERVYGGCLCYGPPIENGFYYDMYLEEGGVSSNDFSSLETLCKKIIKEKQTFERLEVKKETLLEMFKYNKFKCRILNEKVNTPTTTVYRCGPLIDLCRGPHVRHTGKIKTLKIHKNSSTYWEGKADMETLQRIYGISFPDPKLLKEWEKFQEEAKNRDHRKIGRDQELYFFHELSPGSCFFLPKGAYIYNTLMEFIRSEYRKRGFQEVVTPNIFNSRLWMTSGHWQHYSENMFSFEVEKEQFALKPMNCPGHCLMFDHRPRSWRELPLRLADFGVLHRNELSGALTGLTRVRRFQQDDAHIFCAMEQIEDEIKGCLDFLRTVYSVFGFSFKLNLSTRPEKFLGDIEIWNQAEKQLENSLNEFGEKWELNPGDGAFYGPKIDIQIKDAIGRYHQCATIQLDFQLPIRFNLTYVSHDGDDKKRPVIVHRAILGSVERMIAILTENYGGKWPFWLSPRQVMVVPVGPTCDEYAQKVRQQFHDAKFMADTDLDPGCTLNKKIRNAQLAQYNFILVVGEKEKASGTVNIRTRDNKVHGERTVEETVRRLQQLKQTRSKQAEEEF
